Data from PubChem BioAssay AID1487 (National Center for Advancing Translational Sciences (NCATS), 2009).
The other results are listed elsewhere or left out. These are further read-outs of the screen, such as a control signal, another cell line or another target. No call is given for them. Compounds called inactive in the main read-out are mostly missing here. Words in brackets tell the shape of the fitted curve; partial curves, single points and poor fits give uncertain potencies.

Assay: qHTS Assay for Modulators of Lamin A Splicing
Details: HeLa LMNA splicing GFP/RFP minigene ratio, 48 h
Outline: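 S3 HeLa stable clones carrying a lamin A-EGFP splicing minigene plus DsRed2 were seeded at 600 cells/well in Opti-MEM with 2% FBS, pin-dosed and incubated 48 h at 37°C. Acumen cytometry (488 nm) gave the GFP/RFP total-intensity ratio.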

[1] = measured here: GFP splicing reporter channel
[2] = measured here: RFP viability control channel

Cc1ccc(-n2nc3c4c(cccc4c2=O)-c2ccccc2-3)cc1
AC50 [1]: 10 µM [falling, single point]
AC50 [2]: 0.0562 µM [falling, partial curve]

C=CC(=O)NN(C)c1ncc(C(F)(F)F)cc1Cl
AC50 [1]: 2.82 µM [falling, partial curve, poor fit]
AC50 [2]: 20 µM [falling, single point]

O=C(O)c1ccc(N/N=C/c2ccc3c(c2)OCO3)cc1
AC50 [2]: 1 µM [rising, full curve]

c1ccc(N2CCN(c3ncnc4scc(-c5cccs5)c34)CC2)cc1
AC50 [2]: 11.2 µM [rising, single point]

COc1cccc(-c2cc(NCc3ccccc3OC)ncn2)c1
AC50 [1]: 17.8 µM [falling, single point]
AC50 [2]: 35.5 µM [falling, single point]

Cc1ccc(C(=O)N/N=C\c2sccc2C)cn1
AC50 [2]: 6.31 µM [falling, single point]

CCc1cc(=O)oc2cc(C)c(CN3CCCC(C)C3)c(O)c12 (configuration not stated)
AC50 [2]: 11.2 µM [rising, single point]

Cc1cc(C)nc(-n2nc(C)c3c2N(Cc2ccccc2F)C(=O)CC3c2ccc(Cl)cc2)n1 (configuration not stated)
AC50 [1]: 35.5 µM [falling, single point]
AC50 [2]: 35.5 µM [falling, single point]

Cc1ccccc1-n1c(SCc2c(C)noc2C)nnc1-c1c[nH]c2ccccc12
AC50 [2]: 10 µM [rising, partial curve]

CNc1nc(Sc2cccc(C(F)(F)F)c2)cc(C(F)(F)F)n1
AC50 [1]: 1.58 µM [rising, full curve, poor fit]

Cc1noc(C)c1-c1cc(Nc2ccccc2)ncn1
AC50 [1]: 14.1 µM [falling, partial curve, poor fit]

O=C(CN1CCN(S(=O)(=O)c2ccc(Cl)cc2)CC1)Nc1ccc2c(c1)CCC2
AC50 [1]: 14.1 µM [rising, single point]
AC50 [2]: 17.8 µM [rising, single point]

Cc1cc(O)cc(C)c1Cl
AC50 [1]: 0.0141 µM [rising, partial curve, poor fit]

O=C(Cc1ccc(-c2ccccc2)cc1)NCCS(=O)(=O)N1CCN(c2ccc(F)cc2)CC1
AC50 [1]: 0.01 µM [falling, full curve, poor fit]
AC50 [2]: 0.00708 µM [falling, full curve, poor fit]

COc1ccccc1/C=C1\S/C(=N/NC(=O)c2cccc(Br)c2)NC1=O
AC50 [1]: 4.47 µM [rising, full curve, poor fit]
AC50 [2]: 5.62 µM [rising, full curve]

COc1ccccc1NC(=O)COC(=O)C1CCN(/C=C/C(=O)C(F)(F)F)CC1
AC50 [1]: 0.00447 µM [falling, full curve, poor fit]
AC50 [2]: 0.00447 µM [falling, full curve, poor fit]

Cc1ccccc1CSCC(=O)Nc1ccccc1-c1ccccc1
AC50 [2]: 20 µM [rising, single point]

O=C(Nc1ccc2c(c1)OCCO2)C1CCCN(S(=O)(=O)c2cccc3nsnc23)C1 (configuration not stated)
AC50 [2]: 15.8 µM [rising, single point]

Nc1cc(N)nc(SCC(=O)Nc2ccc(Br)cc2Cl)n1
AC50 [2]: 11.2 µM [rising, single point]

O=C(/C=C/c1ccc(Cl)cc1Cl)NCCSCc1ccccc1
AC50 [2]: 14.1 µM [rising, partial curve]

COc1ccc(N2CCN(CCCNC(=O)C3COc4ccccc4C3)CC2)cc1 (configuration not stated)
AC50 [1]: 11.2 µM [falling, partial curve, poor fit]
AC50 [2]: 15.8 µM [falling, partial curve, poor fit]

CCc1c(O)cc2n(c1=O)-c1ccc(Cl)cc1C2(C)C
AC50 [1]: 6.31 µM [rising, partial curve]
AC50 [2]: 12.6 µM [rising, partial curve]

O=C(Nc1nc2c(F)cc(F)cc2s1)c1ccc(S(=O)(=O)N2CCc3ccccc32)cc1
AC50 [2]: 10 µM [rising, partial curve]

Cc1ccc(C(=O)NC(=S)/C=C2\N(C)c3ccccc3C2(C)C)cc1
AC50 [2]: 35.5 µM [rising, single point]

COc1ccc(S(=O)(=O)Nc2cc(C(=O)NCCC(C)C)ccc2N2CCOCC2)cc1
AC50 [1]: 14.1 µM [rising, single point]

O=C1C=CC(=O)c2c(O)c(Cl)c(Cl)c(O)c21
AC50 [1]: 10 µM [falling, partial curve]
AC50 [2]: 7.94 µM [falling, partial curve]

Oc1cccc(O)c1
AC50 [2]: 1 µM [rising, partial curve, poor fit]

CCC(=O)N1CCc2cc(S(=O)(=O)NCCC(=O)N3CC=C(c4ccccc4)CC3)ccc21
AC50 [1]: 12.6 µM [rising, single point]
AC50 [2]: 12.6 µM [rising, partial curve]

CCOCCc1nn2c(=O)cc(COC(=O)c3ccccc3OC)nc2s1
AC50 [1]: 0.02 µM [rising, full curve, poor fit]

CC(=O)c1c(C)nn(CC(O)Cn2c3c(c4cc(C)ccc42)CCCC3=O)c1C (configuration not stated)
AC50 [2]: 22.4 µM [rising, partial curve, poor fit]

O=C(N/N=C/c1ccc[nH]1)c1ccccc1O
AC50 [2]: 14.1 µM [rising, single point]

CCN1CCN(c2nc(N)c([N+](=O)[O-])c(Nc3ccc(C)cc3)n2)CC1
AC50 [1]: 22.4 µM [rising, partial curve, poor fit]
AC50 [2]: 2.24 µM [rising, partial curve, poor fit]

CCOC(=O)CSc1nc2ccccc2c(=O)n1CCCCCC(=O)NCc1ccco1
AC50 [1]: 31.6 µM [rising, single point]

O=C(CSc1n[nH]c(-c2cccnc2)n1)Nc1ccnc2ccccc12
AC50 [2]: 17.8 µM [rising, single point]

O=C(CSc1ccc2c(c1)OCCO2)Nc1ccc(Br)cc1
AC50 [2]: 10 µM [rising, partial curve]

CCN(C(=O)CSc1nc2ccc([N+](=O)[O-])cc2s1)C1CCS(=O)(=O)C1 (configuration not stated)
AC50 [2]: 11.2 µM [rising, partial curve, poor fit]

O=C(Nc1nnc(-c2ccccc2Cl)o1)c1ccc(S(=O)(=O)N2CCCCCC2)cc1
AC50 [2]: 14.1 µM [rising, single point]

OC(COCC1COc2ccccc2O1)CN1CCN(c2ccc(F)cc2)CC1 (configuration not stated)
AC50 [2]: 12.6 µM [rising, single point]

Clc1ccc(OCCn2ccnc2)c2ccccc12
AC50 [2]: 3.98 µM [rising, single point]

O=C(Nc1ccc(F)cc1)NC1(C(=O)NCc2ccc3c(c2)OCO3)CCCCC1
AC50 [2]: 14.1 µM [rising, single point]

COC(=O)COc1ccc(/C=C2/SC(=O)N(CC(=O)N3CCCC3)C2=O)cc1Br
AC50 [1]: 14.1 µM [falling, single point]
AC50 [2]: 35.5 µM [falling, single point]

COc1ccc(-c2noc(CSc3ccccc3)n2)cc1OC
AC50 [2]: 31.6 µM [rising, single point]

CCOc1cc(/C=N\Nc2nc(Nc3ccccc3)nc(N3CCOCC3)n2)ccc1OC(=O)c1ccco1
AC50 [2]: 10 µM [rising, partial curve]

Oc1ccc(/C=N/N=C(c2ccccc2)c2ccccc2)c(O)c1O
AC50 [2]: 35.5 µM [rising, single point]

Cc1ccc(-c2cc(C(=O)Nc3nccs3)c3ccccc3n2)c(C)c1
AC50 [2]: 14.1 µM [rising, partial curve, poor fit]

COc1ccc(C(=O)C(CCC(CNC(C)(C)C)C(=O)c2ccc(OC)cc2)CNC(C)(C)C)cc1 (configuration not stated)
AC50 [1]: 11.2 µM [rising, partial curve]
AC50 [2]: 17.8 µM [rising, partial curve]

O=C(O)C(Cc1ccccc1)N1CCS(=O)(=O)CC1 (configuration not stated)
AC50 [2]: 0.794 µM [falling, single point]

CCCCN(CCCC)C(=S)NC(=O)c1ccccc1Cl
AC50 [2]: 20 µM [rising, single point]

c1ccc(CNc2ccc3ccccc3n2)nc1
AC50 [1]: 0.0501 µM [rising, full curve, poor fit]

O=C(/C=C/c1ccccc1)c1cc(Br)ccc(=O)c1O
AC50 [1]: 35.5 µM [falling, single point]
AC50 [2]: 35.5 µM [falling, single point]

Cc1ccc(CNC(=O)C(Cc2ccccc2)NS(=O)(=O)c2ccc(Br)s2)cc1 (configuration not stated)
AC50 [2]: 35.5 µM [rising, single point]

Cc1cc(C)nc(N2CCCC(C(=O)Nc3ccc4nc(C)c(C)nc4c3)C2)n1 (configuration not stated)
AC50 [1]: 15.8 µM [rising, single point]
AC50 [2]: 12.6 µM [rising, single point]

CN1/C(=C/C=C(C#N)C#N)C=Cc2ccccc21
AC50 [1]: 0.0501 µM [rising, full curve, poor fit]
AC50 [2]: 0.398 µM [rising, full curve]

O=c1c2ccccc2nc(N/N=C/c2c(O)ccc3ccccc23)n1O
AC50 [1]: 7.94 µM [falling, partial curve]
AC50 [2]: 10 µM [rising, partial curve, poor fit]

Cc1ccc(S(=O)(=O)N2CCN(C(=O)c3cccs3)CC2)c(C)c1
AC50 [1]: 0.501 µM [rising, full curve]
AC50 [2]: 0.562 µM [rising, full curve, poor fit]

COC(=O)CCC(=O)CN
AC50 [1]: 0.355 µM [rising, full curve, poor fit]

CCc1cccc(NC(=O)CSc2nc3c(c(=O)[nH]2)CCCC3)c1
AC50 [2]: 12.6 µM [rising, partial curve, poor fit]
